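Whole-parasite assay of Trypanosoma brucei over 72 hours; the read-out is not stated. Concentration: 30 µM. Direction is inferred from retests: higher values go with stronger inhibition. Values scatter widely below zero; nearly all retest evidence comes from the higher of the two concentrations used. About 64,000 compounds were tested under these conditions; 1.5% (about 940) showed 50% or more at least once.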

The filed quantity is “Percent Effect” (%). The record does not define 0% and 100%; most values in the screen are far below 50% and negative numbers occur (in some assays of this library far below -100). The compounds are a random part of those screened.

Compound	percent effect
Cc1n[nH]c(C)c1CCC(=O)N1CCC(O)(CN2CCOCC2)C1 (stereo not shown)	-4.476
Cc1cc(CN(C)C(=O)c2cccc(N3CCCC3=O)c2)no1	-38.59
CS(=O)(=O)NC(=O)c1nnn(-c2cccc(F)c2)c1C1CC1	-19.55
CN(CC(=O)NC1(C#N)CCCC1)C1CCCN(c2cccnn2)C1 (stereo not shown)	33.96
CN(C)C(=O)N1CC2(CCN(CC3CC3)CC2)c2cc(F)ccc21.O=C(O)C(F)(F)F	-10.11
Cc1cc(-c2nn(C)c(Cl)c2CN2CCN(C)C(C(=O)O)C2)no1 (stereo not shown)	-31.61
COCCS(=O)(=O)NC(C)c1ccccc1Br (stereo not shown)	0.6423
CCS(=O)(=O)N(C)C1CCN(C(=O)c2cccc(Cl)c2)CC1	7.87
COCC1CN(Cc2ccoc2)Cc2cn(CC3CCOCC3)nc21 (stereo not shown)	-14.62
CN(Cc1c(F)cccc1Cl)C(=O)CN(C)C1CCc2ccccc21 (stereo not shown)	-65.96
COc1ccc(N(C(=O)c2ccc(C)nc2)C(C)C)cc1F	-78.38
COCCN1CCN(CC(=O)N(C)Cc2cccc(F)c2)CC1C (stereo not shown)	0.09933
CCN(C)c1ncnc2c1CCN(C(=O)N1CCCC1)CC2.O=C(O)C(F)(F)F	-19.53
CN1CCNC(=O)C1CC(=O)NCCc1cnn(-c2ccccc2)c1 (stereo not shown)	-84.45
COc1cc(CN2CC[C@@]3(CCCO3)[C@@H](O)C2)ccc1F	8.922
O=C(NCCC(O)c1ccco1)c1ccccc1Br (stereo not shown)	4.978
COC(=O)N1CCc2ccccc2C1C(=O)NCC(F)(F)F (stereo not shown)	16.28
CC(=O)N[C@@H]1CN(C(=O)c2csc(C(C)C)n2)C[C@H]1C(C)C	-57.66
CCc1nnc(Sc2nn3cc(C)nc3s2)n1C	12.68
COc1ccc(CNCc2cn(C)nc2C)cc1	-9.938
CCCC(=O)Nc1cc(C(=O)NC(C)Cc2ccncc2)ccc1C (stereo not shown)	-2.173
O=C(c1cccc2c1OCCO2)N1CCCC(n2ccnc2)C1 (stereo not shown)	-14.02
O=C(O)C(F)(F)F.[H][C@@]12COC[C@]1(c1nc(C)no1)CN(C(=O)CN(C)C)C2	106.1
Cc1ccc(-c2nnc(CCC(=O)NCc3cn(C)nc3C)o2)s1	3.355
CNC(=O)NC(=O)CCN1CCCC1c1nc(C2CCCCC2)co1 (stereo not shown)	4.244
Cc1cnn(CCC(=O)N(CC2CN(C)CCO2)c2nccs2)c1 (stereo not shown)	8.846
CSc1nccn1-c1cccc(C(=O)NCC2CC2)c1	42.7
COc1ccc(CN2CCCn3cnc(COC(C)C)c3C2)cc1.O=C(O)C(F)(F)F	-6.323
CC(=O)N1CCN(Cc2ccccn2)CC2(CC(=O)N(C)C2)C1.O=C(O)C(F)(F)F.O=C(O)C(F)(F)F (stereo not shown)	0.5788
CCN(CC1CCOC1)C(=O)CCc1nc(C(C)(C)C)no1 (stereo not shown)	-29.7
Cc1cc(Br)c(O)c(C(=O)N2CCC(CN3CCCCCC3)CC2)c1	13.59
CC(Cn1cncn1)NC(=O)Nc1ccc(COC2CCCC2)cc1 (stereo not shown)	-4.297
CC(C)CN1CCCn2nc(CNC(=O)NC(C)(C)C)cc2C1	-93.31
COc1cccc(S(=O)(=O)NC(=O)C2CC(c3ccccc3)=NO2)c1 (stereo not shown)	-8.513
CCc1cnc2c(c1Nc1ccncc1)c(=O)n(C)c(=O)n2C	-6.835
COc1cc(N(C)Cc2cccc(-n3cccn3)c2)nc(N)n1	21.51
O=C1CCCc2[nH]c(=O)c(C(=O)N3CCc4ccccc4C3)cc21	-43
Cc1[nH]ncc1C(=O)N(CC(C)C)CC(O)c1ccc(F)cc1 (stereo not shown)	-64.33
CCOc1cc(C)ccc1NS(=O)(=O)c1cc(C)c(C(=O)O)s1	1.921
Cc1cccc(N(CCC(N)=O)C(=O)c2cnccn2)c1	-73.02
Cc1ncsc1-c1nc(Cc2cccs2)nn1C1CCN(C)CC1	-71.13
Cc1ccccc1-n1cc(-c2ccnc(N3CCCC(CN)C3)n2)cn1 (stereo not shown)	46.15
CCOCCCNC(=O)c1nn(CC)cc1Br	-20.76
Cc1ccnc(C(NC(=O)c2ncoc2C)C2CC2)n1 (stereo not shown)	-55.61
CC(C)C(=O)NC1CCN(Cc2cccc3c2OCCO3)CC1	-15.03
CN1CCC(C(=O)N2CCC(=Cc3cccc(F)c3)CC2)CC1=O (stereo not shown)	-68.05
O=C(C1=CCCC1)N1CCC[C@]2(C[C@@H](OCc3ccncc3)CO2)C1.O=C(O)C(F)(F)F	8.09
CC(C)[C@@H]1CN(c2ccc(C(F)(F)F)cn2)C[C@H]1NS(C)(=O)=O	-48.65
CN(C)C(=O)Cn1c(C2CC2)c(CN2CCSCC2)c2cccnc21	-14.71
Cn1ccnc1COc1ccc(COC(=O)C2CCCO2)cc1 (stereo not shown)	-5.224
NC(=O)C1(c2cnccn2)CCCN1Cc1ccccn1 (stereo not shown)	-8.508
CS(=O)(=O)N1CCC(Cc2cnc(Br)cn2)CC1	-1.598
CC(=O)N1CC(=O)N(c2cccnc2)CC12CCN(Cc1nccs1)C2.O=C(O)C(F)(F)F.O=C(O)C(F)(F)F (stereo not shown)	6.322
CCCc1ncc(C(=O)N2CCOC(c3nc(C)n[nH]3)C2)s1 (stereo not shown)	-17.43
Cn1cccc1C(=O)N1CCC(c2nnc(Cn3ccnc3)n2C)CC1	-14.45
Cc1noc(C(C)N2CCN(CCCN3CCCC3=O)CC2)n1 (stereo not shown)	2.553

Measurements from “University of Dundee, Small-Polar-MMV Screening Library” (2021), ChEMBL document CHEMBL3988442.